According to publication PMC9857240:
No constants are given. Whether binding was seen depends on the method and setting. In cells and extracts the contact can be indirect. Some results given as binding are weak or reduced against the parent protein; the word gives no strength. Sequences can lack the tags named with a protein.

Protein sequences, listed by entry. Tags and fused reporters are not part of them.
UniProt P12956: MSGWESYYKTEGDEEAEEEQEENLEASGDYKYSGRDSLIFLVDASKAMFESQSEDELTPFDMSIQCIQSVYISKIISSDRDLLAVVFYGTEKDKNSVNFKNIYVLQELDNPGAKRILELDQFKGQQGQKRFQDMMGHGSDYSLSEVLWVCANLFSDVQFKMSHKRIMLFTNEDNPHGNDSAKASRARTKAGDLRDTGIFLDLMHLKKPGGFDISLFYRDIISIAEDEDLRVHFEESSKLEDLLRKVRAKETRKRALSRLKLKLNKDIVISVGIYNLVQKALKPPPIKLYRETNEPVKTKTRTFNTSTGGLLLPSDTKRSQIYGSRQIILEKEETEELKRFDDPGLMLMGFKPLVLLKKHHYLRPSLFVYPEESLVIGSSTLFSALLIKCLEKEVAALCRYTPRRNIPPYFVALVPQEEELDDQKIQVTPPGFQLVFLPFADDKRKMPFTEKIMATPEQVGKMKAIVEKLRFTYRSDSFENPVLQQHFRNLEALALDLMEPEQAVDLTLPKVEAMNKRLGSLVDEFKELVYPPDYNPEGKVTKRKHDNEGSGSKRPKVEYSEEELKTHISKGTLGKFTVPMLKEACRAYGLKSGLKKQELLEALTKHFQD

Molecular target: T1, GFP-IPO13 (UniProt Q8K0C1)
T1 sequence: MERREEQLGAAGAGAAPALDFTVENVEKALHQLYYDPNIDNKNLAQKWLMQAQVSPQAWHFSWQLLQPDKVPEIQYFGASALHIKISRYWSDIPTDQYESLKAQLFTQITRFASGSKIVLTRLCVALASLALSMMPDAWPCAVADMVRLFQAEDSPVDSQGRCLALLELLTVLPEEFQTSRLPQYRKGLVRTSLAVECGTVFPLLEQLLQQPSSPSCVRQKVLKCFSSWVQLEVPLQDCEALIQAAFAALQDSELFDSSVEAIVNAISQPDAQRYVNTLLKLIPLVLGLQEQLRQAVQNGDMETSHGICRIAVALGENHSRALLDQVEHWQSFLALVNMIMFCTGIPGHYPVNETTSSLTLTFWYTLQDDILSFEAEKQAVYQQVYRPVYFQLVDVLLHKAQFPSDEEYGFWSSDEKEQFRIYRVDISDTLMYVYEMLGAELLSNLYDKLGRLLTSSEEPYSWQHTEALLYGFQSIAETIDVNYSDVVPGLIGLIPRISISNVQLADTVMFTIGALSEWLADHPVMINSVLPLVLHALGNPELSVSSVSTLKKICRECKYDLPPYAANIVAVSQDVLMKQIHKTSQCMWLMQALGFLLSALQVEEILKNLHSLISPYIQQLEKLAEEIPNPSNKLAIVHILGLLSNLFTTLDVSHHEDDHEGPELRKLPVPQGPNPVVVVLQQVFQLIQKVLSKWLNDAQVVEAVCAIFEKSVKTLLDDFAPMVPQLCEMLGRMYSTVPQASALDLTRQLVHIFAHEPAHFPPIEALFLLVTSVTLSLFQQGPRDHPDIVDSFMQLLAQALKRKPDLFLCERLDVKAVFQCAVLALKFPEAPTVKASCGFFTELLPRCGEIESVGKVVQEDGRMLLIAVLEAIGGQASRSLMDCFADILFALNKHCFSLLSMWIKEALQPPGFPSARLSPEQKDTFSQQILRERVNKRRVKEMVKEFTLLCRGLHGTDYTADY
Assay: co-IP; HeLa, transfected, with or without 125 uM H2O2 for 1 h, glutaraldehyde protein cross-linking before lysis; GFP-Trap; Western blot

| Substance | binding |
| --- | --- |
| endogenous KU70 (from UniProt P12956 1-609) | binds |
| mCherry-KU70 (from UniProt P12956 1-609) | binds |
